{"source": "PubChem BioAssay AID652272 (Drosophila RNAi Screening Center, 2013)", "test": "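Genes whose knock-down decreases or increases Hedgehog reporter output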 (primary screen)", "system": "Drosophila clone 8 (Cl8) cells", "reagent": "long dsRNA against Drosophila genes", "measured": "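Firefly light from a Hedgehog-responsive ptc promoter reporter and Renilla reference light, both read on a plate reader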", "reading the numbers": "firefly Hh reporter signal: higher = more ptc reporter light; Renilla reference signal: higher = more Renilla control light", "rule for the call": "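Hit when the z-score averaged over two replicates is under -2 or over +3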", "meaning of the calls": "active = hit: reporter lowered or raised; inactive = not a hit", "note": "In all, the deposit lists about 21,000 reagents; this is an unselected part of those that have a named target and a result. Over the whole deposit, 503 (2.4%) got an active call. 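Raw plate light values, not normalised; calls rest on replicate z-scores that were not deposited; hits include reporter decreases as well as increases.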 Not given: the amount of reagent, the time to read-out."}
{"target gene": "spoon (spoonbill)", "DRSC id": "DRSC18299", "firefly Hh reporter signal, replicate 1": 87286, "firefly Hh reporter signal, replicate 2": 71224, "Renilla reference signal, replicate 1": 2023, "Renilla reference signal, replicate 2": 1584, "Call": "inactive"}
{"target gene": "CG31013", "DRSC id": "DRSC16542", "firefly Hh reporter signal, replicate 1": 95068, "firefly Hh reporter signal, replicate 2": 91792, "Renilla reference signal, replicate 1": 2132, "Renilla reference signal, replicate 2": 2545, "Call": "inactive"}
{"target gene": "CG2059", "DRSC id": "DRSC18203", "firefly Hh reporter signal, replicate 1": 98224, "firefly Hh reporter signal, replicate 2": 2.07e5, "Renilla reference signal, replicate 1": 3064, "Renilla reference signal, replicate 2": 8090, "Call": "inactive"}
{"target gene": "CG34278", "DRSC id": "DRSC13208", "firefly Hh reporter signal, replicate 1": 53872, "firefly Hh reporter signal, replicate 2": 2.39e5, "Renilla reference signal, replicate 1": 11062, "Renilla reference signal, replicate 2": 6067, "Call": "inactive"}
{"target gene": "CG10559", "DRSC id": "DRSC14255", "firefly Hh reporter signal, replicate 1": 5.06e5, "firefly Hh reporter signal, replicate 2": 66706, "Renilla reference signal, replicate 1": 30151, "Renilla reference signal, replicate 2": 1696, "Call": "inactive"}
{"target gene": "Tbcb (Tubulin-binding cofactor B)", "DRSC id": "DRSC06067", "firefly Hh reporter signal, replicate 1": 1.34e5, "firefly Hh reporter signal, replicate 2": 91328, "Renilla reference signal, replicate 1": 6520, "Renilla reference signal, replicate 2": 4454, "Call": "inactive"}
{"target gene": "CG30447", "DRSC id": "DRSC05820", "firefly Hh reporter signal, replicate 1": 1.15e5, "firefly Hh reporter signal, replicate 2": 2.74e5, "Renilla reference signal, replicate 1": 3222, "Renilla reference signal, replicate 2": 10904, "Call": "inactive"}
{"target gene": "Nep4 (Neprilysin 4)", "DRSC id": "DRSC15539", "firefly Hh reporter signal, replicate 1": 1.01e5, "firefly Hh reporter signal, replicate 2": 54104, "Renilla reference signal, replicate 1": 4521, "Renilla reference signal, replicate 2": 2048, "Call": "inactive"}
{"target gene": "Prip", "DRSC id": "DRSC07044", "firefly Hh reporter signal, replicate 1": 1.15e5, "firefly Hh reporter signal, replicate 2": 54888, "Renilla reference signal, replicate 1": 4704, "Renilla reference signal, replicate 2": 2267, "Call": "inactive"}
{"target gene": "CG7546", "DRSC id": "DRSC08885", "firefly Hh reporter signal, replicate 1": 98368, "firefly Hh reporter signal, replicate 2": 2.41e5, "Renilla reference signal, replicate 1": 2809, "Renilla reference signal, replicate 2": 10112, "Call": "inactive"}
{"target gene": "CG7546", "DRSC id": "DRSC10871", "firefly Hh reporter signal, replicate 1": 1.76e5, "firefly Hh reporter signal, replicate 2": 4.70e5, "firefly Hh reporter signal, replicate 3": 1.14e5, "Renilla reference signal, replicate 1": 7020, "Renilla reference signal, replicate 2": 28487, "Call": "inactive"}
{"target gene": "CG3726", "DRSC id": "DRSC18320", "firefly Hh reporter signal, replicate 1": 1.23e5, "firefly Hh reporter signal, replicate 2": 4.56e5, "firefly Hh reporter signal, replicate 3": 1.17e5, "Renilla reference signal, replicate 1": 3018, "Renilla reference signal, replicate 2": 22851, "Call": "inactive"}
{"target gene": "CG42336", "DRSC id": "DRSC05273", "firefly Hh reporter signal, replicate 1": 1.25e5, "firefly Hh reporter signal, replicate 2": 2.81e5, "Renilla reference signal, replicate 1": 3539, "Renilla reference signal, replicate 2": 10775, "Call": "inactive"}
{"target gene": "CG42336", "DRSC id": "DRSC06332", "firefly Hh reporter signal, replicate 1": 82968, "firefly Hh reporter signal, replicate 2": 35894, "Renilla reference signal, replicate 1": 2070, "Renilla reference signal, replicate 2": 2501, "Call": "inactive"}
{"target gene": "CG42336", "DRSC id": "DRSC06333", "firefly Hh reporter signal, replicate 1": 1.64e5, "firefly Hh reporter signal, replicate 2": 5.20e5, "firefly Hh reporter signal, replicate 3": 90858, "Renilla reference signal, replicate 1": 4288, "Renilla reference signal, replicate 2": 1524, "Call": "inactive"}
{"target gene": "CheB53b (Chemosensory protein B 53b)", "DRSC id": "DRSC05613", "firefly Hh reporter signal, replicate 1": 1.36e5, "firefly Hh reporter signal, replicate 2": 1.97e5, "Renilla reference signal, replicate 1": 3921, "Renilla reference signal, replicate 2": 8400, "Call": "inactive"}
{"target gene": "yellow-h", "DRSC id": "DRSC17141", "firefly Hh reporter signal, replicate 1": 60976, "firefly Hh reporter signal, replicate 2": 1.90e5, "Renilla reference signal, replicate 1": 1649, "Renilla reference signal, replicate 2": 7136, "Call": "inactive"}
{"target gene": "ND-SGDH (NADH dehydrogenase (ubiquinone) SGDH subunit)", "DRSC id": "DRSC11102", "firefly Hh reporter signal, replicate 1": 33829, "firefly Hh reporter signal, replicate 2": 48077, "firefly Hh reporter signal, replicate 3": 71579, "Renilla reference signal, replicate 1": 4640, "Renilla reference signal, replicate 2": 4950, "Call": "inactive"}
{"target gene": "fok (fledgling of Klp38B)", "DRSC id": "DRSC02103", "firefly Hh reporter signal, replicate 1": 85578, "firefly Hh reporter signal, replicate 2": 43165, "Renilla reference signal, replicate 1": 2364, "Renilla reference signal, replicate 2": 4688, "Call": "inactive"}
{"target gene": "ATPsynC (ATP synthase, subunit C)", "DRSC id": "DRSC15236", "firefly Hh reporter signal, replicate 1": 66803, "firefly Hh reporter signal, replicate 2": 1.00e5, "Renilla reference signal, replicate 1": 1642, "Renilla reference signal, replicate 2": 3168, "Call": "inactive"}
{"target gene": "CAH8 (Carbonic anhydrase 8)", "DRSC id": "DRSC15784", "firefly Hh reporter signal, replicate 1": 9.49e5, "firefly Hh reporter signal, replicate 2": 2.11e5, "Renilla reference signal, replicate 1": 44060, "Renilla reference signal, replicate 2": 4888, "Call": "inactive"}

2 successive entries from above, quoted:
{"target gene": "yellow-h", "DRSC id": "DRSC17141", "firefly Hh reporter signal, replicate 1": 60976, "firefly Hh reporter signal, replicate 2": 1.90e5, "Renilla reference signal, replicate 1": 1649, "Renilla reference signal, replicate 2": 7136, "Call": "inactive"}
{"target gene": "ND-SGDH (NADH dehydrogenase (ubiquinone) SGDH subunit)", "DRSC id": "DRSC11102", "firefly Hh reporter signal, replicate 1": 33829, "firefly Hh reporter signal, replicate 2": 48077, "firefly Hh reporter signal, replicate 3": 71579, "Renilla reference signal, replicate 1": 4640, "Renilla reference signal, replicate 2": 4950, "Call": "inactive"}
